This is an account of results in article doi:10.1101/567305.

Results are given in words; binding and its absence hold for the method and conditions named. In cells and extracts the contact can be indirect. Some binding calls cover weakened binding; strength is not graded here. For some of these results: Where a sequence is shown, tags or fusion partners need not be part of it.

What all share (test): co-IP
The target in experiment [1] is T1, YFP-EML4 full length (human) (UniProt Q9HC35).
T1 sequence: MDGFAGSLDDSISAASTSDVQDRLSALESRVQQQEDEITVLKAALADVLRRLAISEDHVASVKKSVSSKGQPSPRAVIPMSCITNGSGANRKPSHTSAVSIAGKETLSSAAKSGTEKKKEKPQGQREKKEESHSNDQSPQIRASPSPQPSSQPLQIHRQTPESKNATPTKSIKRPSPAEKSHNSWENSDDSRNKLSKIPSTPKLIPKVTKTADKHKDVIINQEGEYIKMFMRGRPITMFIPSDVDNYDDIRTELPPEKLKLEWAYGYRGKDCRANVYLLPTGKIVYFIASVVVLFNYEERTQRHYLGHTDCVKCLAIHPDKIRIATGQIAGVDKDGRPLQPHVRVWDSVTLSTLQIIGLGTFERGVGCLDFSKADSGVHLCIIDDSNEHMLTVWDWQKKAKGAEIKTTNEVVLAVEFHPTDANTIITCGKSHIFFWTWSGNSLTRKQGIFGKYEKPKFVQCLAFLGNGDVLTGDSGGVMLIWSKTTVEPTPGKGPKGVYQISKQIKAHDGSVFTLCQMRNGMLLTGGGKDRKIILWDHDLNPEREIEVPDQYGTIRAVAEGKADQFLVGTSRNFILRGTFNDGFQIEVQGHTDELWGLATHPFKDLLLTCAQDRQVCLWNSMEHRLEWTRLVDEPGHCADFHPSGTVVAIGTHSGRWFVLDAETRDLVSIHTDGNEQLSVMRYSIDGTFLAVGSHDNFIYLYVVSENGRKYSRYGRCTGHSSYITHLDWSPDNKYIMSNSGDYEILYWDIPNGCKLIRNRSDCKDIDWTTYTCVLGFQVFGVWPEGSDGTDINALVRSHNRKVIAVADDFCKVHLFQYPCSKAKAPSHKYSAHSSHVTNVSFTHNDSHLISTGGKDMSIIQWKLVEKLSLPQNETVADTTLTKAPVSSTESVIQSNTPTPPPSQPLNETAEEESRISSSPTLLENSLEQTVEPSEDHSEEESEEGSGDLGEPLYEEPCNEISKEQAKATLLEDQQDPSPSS

Experiment [2] addresses T2, EML4 (endogenous), echinoderm microtubule-associated protein-like 4 (human (endogenous in U2OS)) (UniProt Q9HC35).
T2 sequence: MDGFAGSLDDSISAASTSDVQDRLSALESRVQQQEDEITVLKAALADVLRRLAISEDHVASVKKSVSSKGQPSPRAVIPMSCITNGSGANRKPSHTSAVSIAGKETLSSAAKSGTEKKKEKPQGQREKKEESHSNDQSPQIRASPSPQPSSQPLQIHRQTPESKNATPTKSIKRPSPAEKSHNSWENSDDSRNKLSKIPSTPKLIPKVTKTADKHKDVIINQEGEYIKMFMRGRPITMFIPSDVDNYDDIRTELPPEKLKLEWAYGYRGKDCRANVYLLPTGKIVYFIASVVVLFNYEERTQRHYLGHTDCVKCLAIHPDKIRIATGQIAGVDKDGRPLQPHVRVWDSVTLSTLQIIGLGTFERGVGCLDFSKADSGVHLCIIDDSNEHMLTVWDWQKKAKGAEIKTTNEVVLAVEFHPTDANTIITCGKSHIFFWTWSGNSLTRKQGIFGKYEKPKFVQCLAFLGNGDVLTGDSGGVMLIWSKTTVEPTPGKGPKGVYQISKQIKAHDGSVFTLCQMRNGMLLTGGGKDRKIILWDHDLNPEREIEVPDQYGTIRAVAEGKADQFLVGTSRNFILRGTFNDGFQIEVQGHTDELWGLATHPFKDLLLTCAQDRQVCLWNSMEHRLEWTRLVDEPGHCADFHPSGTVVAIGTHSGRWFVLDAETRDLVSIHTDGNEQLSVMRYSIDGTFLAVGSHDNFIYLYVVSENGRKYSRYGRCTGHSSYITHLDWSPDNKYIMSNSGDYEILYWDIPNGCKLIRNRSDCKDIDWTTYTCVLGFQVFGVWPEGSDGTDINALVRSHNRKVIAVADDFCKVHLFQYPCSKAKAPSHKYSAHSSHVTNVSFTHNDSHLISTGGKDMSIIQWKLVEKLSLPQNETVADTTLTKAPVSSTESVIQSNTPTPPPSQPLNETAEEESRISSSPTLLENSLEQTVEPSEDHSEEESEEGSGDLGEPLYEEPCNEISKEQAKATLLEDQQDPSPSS

The target of experiment [3] is T3, NEK9 (endogenous) (human (endogenous in U2OS)) (UniProt Q8TD19).
T3 sequence: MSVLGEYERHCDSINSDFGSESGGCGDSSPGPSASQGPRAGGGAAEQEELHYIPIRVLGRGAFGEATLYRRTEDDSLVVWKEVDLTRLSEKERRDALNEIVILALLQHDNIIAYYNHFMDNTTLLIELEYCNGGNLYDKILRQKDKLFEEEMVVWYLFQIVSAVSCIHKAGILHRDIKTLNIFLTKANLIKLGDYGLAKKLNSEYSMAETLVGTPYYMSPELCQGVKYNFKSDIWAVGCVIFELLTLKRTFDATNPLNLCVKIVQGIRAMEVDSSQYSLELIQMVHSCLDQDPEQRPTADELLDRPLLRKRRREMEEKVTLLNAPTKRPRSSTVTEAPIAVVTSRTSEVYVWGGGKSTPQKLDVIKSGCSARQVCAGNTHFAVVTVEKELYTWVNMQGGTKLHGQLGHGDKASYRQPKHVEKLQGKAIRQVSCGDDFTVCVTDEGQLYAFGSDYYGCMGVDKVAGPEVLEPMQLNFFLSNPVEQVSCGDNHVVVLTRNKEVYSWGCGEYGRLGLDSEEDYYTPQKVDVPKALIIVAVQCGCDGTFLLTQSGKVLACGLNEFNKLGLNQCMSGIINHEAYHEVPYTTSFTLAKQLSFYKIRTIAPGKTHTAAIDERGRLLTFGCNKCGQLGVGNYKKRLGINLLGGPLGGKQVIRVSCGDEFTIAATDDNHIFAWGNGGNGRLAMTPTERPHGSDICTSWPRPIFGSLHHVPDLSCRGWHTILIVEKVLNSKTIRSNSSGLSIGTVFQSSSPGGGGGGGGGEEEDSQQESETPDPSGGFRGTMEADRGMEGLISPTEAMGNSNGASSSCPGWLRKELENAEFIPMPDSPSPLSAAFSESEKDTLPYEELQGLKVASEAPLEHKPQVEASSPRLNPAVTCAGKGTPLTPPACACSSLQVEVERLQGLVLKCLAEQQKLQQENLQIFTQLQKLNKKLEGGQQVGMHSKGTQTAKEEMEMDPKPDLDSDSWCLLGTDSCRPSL

B1: NEK9 (endogenous) (protein, UniProt Q8TD19 1-979)
chain: MSVLGEYERHCDSINSDFGSESGGCGDSSPGPSASQGPRAGGGAAEQEELHYIPIRVLGRGAFGEATLYRRTEDDSLVVWKEVDLTRLSEKERRDALNEIVILALLQHDNIIAYYNHFMDNTTLLIELEYCNGGNLYDKILRQKDKLFEEEMVVWYLFQIVSAVSCIHKAGILHRDIKTLNIFLTKANLIKLGDYGLAKKLNSEYSMAETLVGTPYYMSPELCQGVKYNFKSDIWAVGCVIFELLTLKRTFDATNPLNLCVKIVQGIRAMEVDSSQYSLELIQMVHSCLDQDPEQRPTADELLDRPLLRKRRREMEEKVTLLNAPTKRPRSSTVTEAPIAVVTSRTSEVYVWGGGKSTPQKLDVIKSGCSARQVCAGNTHFAVVTVEKELYTWVNMQGGTKLHGQLGHGDKASYRQPKHVEKLQGKAIRQVSCGDDFTVCVTDEGQLYAFGSDYYGCMGVDKVAGPEVLEPMQLNFFLSNPVEQVSCGDNHVVVLTRNKEVYSWGCGEYGRLGLDSEEDYYTPQKVDVPKALIIVAVQCGCDGTFLLTQSGKVLACGLNEFNKLGLNQCMSGIINHEAYHEVPYTTSFTLAKQLSFYKIRTIAPGKTHTAAIDERGRLLTFGCNKCGQLGVGNYKKRLGINLLGGPLGGKQVIRVSCGDEFTIAATDDNHIFAWGNGGNGRLAMTPTERPHGSDICTSWPRPIFGSLHHVPDLSCRGWHTILIVEKVLNSKTIRSNSSGLSIGTVFQSSSPGGGGGGGGGEEEDSQQESETPDPSGGFRGTMEADRGMEGLISPTEAMGNSNGASSSCPGWLRKELENAEFIPMPDSPSPLSAAFSESEKDTLPYEELQGLKVASEAPLEHKPQVEASSPRLNPAVTCAGKGTPLTPPACACSSLQVEVERLQGLVLKCLAEQQKLQQENLQIFTQLQKLNKKLEGGQQVGMHSKGTQTAKEEMEMDPKPDLDSDSWCLLGTDSCRPSL
As to B1, the binding entry in experiment [1] and in experiment [2] was “binds” each time.

B2: myc-tagged wild-type NEK9 (protein, UniProt Q8TD19 1-979)
chain: MSVLGEYERHCDSINSDFGSESGGCGDSSPGPSASQGPRAGGGAAEQEELHYIPIRVLGRGAFGEATLYRRTEDDSLVVWKEVDLTRLSEKERRDALNEIVILALLQHDNIIAYYNHFMDNTTLLIELEYCNGGNLYDKILRQKDKLFEEEMVVWYLFQIVSAVSCIHKAGILHRDIKTLNIFLTKANLIKLGDYGLAKKLNSEYSMAETLVGTPYYMSPELCQGVKYNFKSDIWAVGCVIFELLTLKRTFDATNPLNLCVKIVQGIRAMEVDSSQYSLELIQMVHSCLDQDPEQRPTADELLDRPLLRKRRREMEEKVTLLNAPTKRPRSSTVTEAPIAVVTSRTSEVYVWGGGKSTPQKLDVIKSGCSARQVCAGNTHFAVVTVEKELYTWVNMQGGTKLHGQLGHGDKASYRQPKHVEKLQGKAIRQVSCGDDFTVCVTDEGQLYAFGSDYYGCMGVDKVAGPEVLEPMQLNFFLSNPVEQVSCGDNHVVVLTRNKEVYSWGCGEYGRLGLDSEEDYYTPQKVDVPKALIIVAVQCGCDGTFLLTQSGKVLACGLNEFNKLGLNQCMSGIINHEAYHEVPYTTSFTLAKQLSFYKIRTIAPGKTHTAAIDERGRLLTFGCNKCGQLGVGNYKKRLGINLLGGPLGGKQVIRVSCGDEFTIAATDDNHIFAWGNGGNGRLAMTPTERPHGSDICTSWPRPIFGSLHHVPDLSCRGWHTILIVEKVLNSKTIRSNSSGLSIGTVFQSSSPGGGGGGGGGEEEDSQQESETPDPSGGFRGTMEADRGMEGLISPTEAMGNSNGASSSCPGWLRKELENAEFIPMPDSPSPLSAAFSESEKDTLPYEELQGLKVASEAPLEHKPQVEASSPRLNPAVTCAGKGTPLTPPACACSSLQVEVERLQGLVLKCLAEQQKLQQENLQIFTQLQKLNKKLEGGQQVGMHSKGTQTAKEEMEMDPKPDLDSDSWCLLGTDSCRPSL
In the case of B2, in experiment [1], the binding entry is “binds”.

B3: EML4 (endogenous), echinoderm microtubule-associated protein-like 4 (protein, UniProt Q9HC35 1-981)
chain: MDGFAGSLDDSISAASTSDVQDRLSALESRVQQQEDEITVLKAALADVLRRLAISEDHVASVKKSVSSKGQPSPRAVIPMSCITNGSGANRKPSHTSAVSIAGKETLSSAAKSGTEKKKEKPQGQREKKEESHSNDQSPQIRASPSPQPSSQPLQIHRQTPESKNATPTKSIKRPSPAEKSHNSWENSDDSRNKLSKIPSTPKLIPKVTKTADKHKDVIINQEGEYIKMFMRGRPITMFIPSDVDNYDDIRTELPPEKLKLEWAYGYRGKDCRANVYLLPTGKIVYFIASVVVLFNYEERTQRHYLGHTDCVKCLAIHPDKIRIATGQIAGVDKDGRPLQPHVRVWDSVTLSTLQIIGLGTFERGVGCLDFSKADSGVHLCIIDDSNEHMLTVWDWQKKAKGAEIKTTNEVVLAVEFHPTDANTIITCGKSHIFFWTWSGNSLTRKQGIFGKYEKPKFVQCLAFLGNGDVLTGDSGGVMLIWSKTTVEPTPGKGPKGVYQISKQIKAHDGSVFTLCQMRNGMLLTGGGKDRKIILWDHDLNPEREIEVPDQYGTIRAVAEGKADQFLVGTSRNFILRGTFNDGFQIEVQGHTDELWGLATHPFKDLLLTCAQDRQVCLWNSMEHRLEWTRLVDEPGHCADFHPSGTVVAIGTHSGRWFVLDAETRDLVSIHTDGNEQLSVMRYSIDGTFLAVGSHDNFIYLYVVSENGRKYSRYGRCTGHSSYITHLDWSPDNKYIMSNSGDYEILYWDIPNGCKLIRNRSDCKDIDWTTYTCVLGFQVFGVWPEGSDGTDINALVRSHNRKVIAVADDFCKVHLFQYPCSKAKAPSHKYSAHSSHVTNVSFTHNDSHLISTGGKDMSIIQWKLVEKLSLPQNETVADTTLTKAPVSSTESVIQSNTPTPPPSQPLNETAEEESRISSSPTLLENSLEQTVEPSEDHSEEESEEGSGDLGEPLYEEPCNEISKEQAKATLLEDQQDPSPSS
For B3, in experiment [3], the binding entry is on record as “binds”.
